The structures appear in SMILES notation. Several values for one entry are separate records, joined by “and”; a condition that tells them apart may be missing. Identical values can stand only once. The list shows a part of the results. Single values are uncertain here, since repeats match poorly.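 The human kidney-derived cells carry a stably integrated construct of eight TEAD-binding elements driving luciferase, read by luminescence in a drug-repurposing library screen. A compound counts as a hit when its signal is more than five robust Z scores above the plate mean.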

The test system of the assay is HEK293A TEAD-LUC reporter. The assay is described as follows: TEAD-luciferase reporter activity (YAP activation), robust Z score vs plate; higher = stronger YAP/TEAD activation. The settings on record: 24 h.

As to `COc1cccc(-c2ccc(C(=O)N3CCC(NC(=O)c4ccccc4OC)CC3)cc2)c1`, the TEAD-luciferase reporter activity was inactive: 3.92 (compound concentration: 200 nM) and inactive: 2.03 (compound concentration: 10 uM).
For the compound `Cc1nc2cc(C(c3ccccc3)n3ccnc3)ccc2[nH]1` (stereo unspecified), the TEAD-luciferase reporter activity (compound concentration: 200 nM) was inactive: -1.08, the TEAD-luciferase reporter activity (compound concentration: 2 uM) is inactive: -0.649 and the TEAD-luciferase reporter activity (compound concentration: 10 uM) is inactive: -1.61.
For the compound `N[C@@H](CC(=O)N1CCn2c(nnc2C(F)(F)F)C1)Cc1cc(F)c(F)cc1F` [sitagliptin phosphate], for the setting “compound concentration: 2 uM”, the TEAD-luciferase reporter activity was inactive: 1.24.
With `N[C@@H](CC(=O)N1CCn2c(nnc2C(F)(F)F)C1)Cc1cc(F)c(F)cc1F` [(ï¿½Â Â )-Sitagliptin (phosphate)], the TEAD-luciferase reporter activity reads like this: (compound concentration: 200 nM) inactive: -0.909; (compound concentration: 10 uM) inactive: 0.974.
For `Cc1cc(C)c2c3ccccc3n(Cc3ccc([C@@H](C(=O)N[C@@H](CO)c4ccccc4)C4CCCC4)cc3)c2n1` [Implitapide], the TEAD-luciferase reporter activity by setting is: (compound concentration: 200 nM) inactive: 0.83; (compound concentration: 2 uM) inactive: -1.52; (compound concentration: 10 uM) inactive: 0.594.
The corresponding values for `CCC[n+]1cc(Br)cc(C(=O)N(CCC(=O)NCCOC(=O)N2CCc3ccccc3C2)c2ccccc2)c1` [TCV-309 (chloride)] are inactive: -0.366, inactive: -0.404 and inactive: 2.61.
The corresponding values for `O=C(NO)c1cnc(N2C[C@@H]3[C@H](C2)[C@H]3NCc2ccc3cc(F)ccc3n2)nc1` are active: 10.9, active: 42.5 and active: 67.8.
On to `Cc1c(-c2ccccc2)oc2c(C(=O)OCCN3CCCCC3)cccc2c1=O` [flavoxate], for which the TEAD-luciferase reporter activity was inactive: -2.52 (compound concentration: 200 nM), inactive: -0.698 (compound concentration: 2 uM) and inactive: 2.1 (compound concentration: 10 uM).
`CN(C)CC(=O)N1Cc2ccccc2CC2(CCCCN2Cc2ccccc2)C1` (stereo unspecified): the TEAD-luciferase reporter activity is inactive: -0.605 (compound concentration: 200 nM) and inactive: -1.44 (compound concentration: 10 uM).
As for `CCC(Oc1cccc(CN(CCCOc2ccc(OC)cc2)c2nc3ccccc3o2)c1)C(=O)O` (stereo unspecified) [Pemafibrate], the TEAD-luciferase reporter activity by setting is: (compound concentration: 200 nM) inactive: -1.32; (compound concentration: 2 uM) inactive: -0.0856; (compound concentration: 10 uM) inactive: -0.695.
Regarding `N=C(N)c1ccc(C(=O)NCCC(=O)N[C@@H](CC(=O)O)C(=O)N[C@@H](Cc2ccccc2)C(=O)O)cc1`, the TEAD-luciferase reporter activity was inactive: -1.14 (compound concentration: 200 nM), inactive: -0.698 (compound concentration: 2 uM) and inactive: -0.524 (compound concentration: 10 uM).
For the compound `COC(=O)c1ccccc1-c1c2ccc(=N)c(Br)c-2oc2c(Br)c(N)ccc12`, the TEAD-luciferase reporter activity (compound concentration: 200 nM) was inactive: -0.309, the TEAD-luciferase reporter activity (compound concentration: 2 uM) was inactive: -0.857 and the TEAD-luciferase reporter activity (compound concentration: 10 uM) is inactive: 1.88.
As for `COc1ccc(C(=O)Nc2c(Cl)c[n+]([O-])cc2Cl)cc1OC1CC[C@@H](O)C1` (stereo partly specified), the TEAD-luciferase reporter activity (compound concentration: 200 nM) was inactive: -1.03, the TEAD-luciferase reporter activity (compound concentration: 2 uM) is inactive: 0.124 and the TEAD-luciferase reporter activity (compound concentration: 10 uM) was inactive: 0.547.
The corresponding values for `C[C@H]1COc2c(N3CC(N)C4(CCC4)C3)c(F)cc3c(=O)c(C(=O)O)cn1c23` (stereo partly specified) are inactive: -0.241, inactive: -0.0488 and inactive: -0.593.
For `CCCCC(=O)OC1CCC2C3CCc4cc(O)ccc4C3CCC12C` (stereo unspecified) [Estradiol valerate], the TEAD-luciferase reporter activity is inactive: 4.77 (compound concentration: 200 nM), inactive: -0.244 (compound concentration: 2 uM) and inactive: 0.614 (compound concentration: 10 uM).
The corresponding values for `Cc1ccnn1-c1cc(CN2CC[C@]3(C=CC(=O)N3c3cccc(F)c3)C[C@@H]2C)ccc1O` are inactive: 0.598, inactive: 0.0516 and inactive: -0.184.
The corresponding values for `O=C([O][Al]([OH])[OH])[C@H](O)[C@@H](O)[C@H](O)[C@H](O)CO` [alglutamol] are inactive: 0.177, inactive: -1.16 and inactive: -1.13.
As for `COC(=O)Nc1nc2cc(C3(O)c4ccccc4C(=O)N3c3cc(Cl)ccc3C)ccc2[nH]1` (stereo unspecified), the TEAD-luciferase reporter activity (compound concentration: 200 nM) was inactive: -1.39 and inactive: -1.45; the TEAD-luciferase reporter activity (compound concentration: 2 uM) is inactive: 0.0115 and inactive: -0.565; the TEAD-luciferase reporter activity (compound concentration: 10 uM) was inactive: -0.77 and inactive: -0.41.
For `OC1CCN(Cc2cccc(Nc3ncnc4ccccc34)c2)CC1`, the TEAD-luciferase reporter activity is inactive: -0.75 (compound concentration: 200 nM), inactive: 2.13 (compound concentration: 2 uM) and inactive: -0.81 (compound concentration: 10 uM).
Turning to `Nc1nc(=O)n([C@H]2C[C@H](O)[C@@H](CO)O2)cc1Cl` [Cytochlor], the TEAD-luciferase reporter activity was inactive: 1.43 (compound concentration: 200 nM), inactive: 0.765 (compound concentration: 2 uM) and inactive: 2.82 (compound concentration: 10 uM).
The corresponding values for `O=c1[nH]nc(O)c2c1cc1cc(Br)ccc1[n+]2[O-]` are inactive: -0.946, inactive: -0.89 and inactive: -1.62.
Turning to `CCN(CC)CC(=O)Nc1c(C)cccc1C` [lidocaine 4 %], under “compound concentration: 2 uM”, the TEAD-luciferase reporter activity was inactive: -0.621.
`CCN(CC)CC(=O)Nc1c(C)cccc1C`: the TEAD-luciferase reporter activity reads like this: (compound concentration: 200 nM) inactive: 0.602; (compound concentration: 10 uM) active: 6.61.
`CC(C)=CCOc1cc(NC(=O)c2cscn2)ccc1Cl`: the TEAD-luciferase reporter activity runs as follows: (compound concentration: 200 nM) inactive: 0.0965; (compound concentration: 2 uM) inactive: 0.0504; (compound concentration: 10 uM) inactive: 1.07.
Consider `Nc1ccn(C[C@@H](CO)OCP(=O)(O)O)c(=O)n1` [cidofovir gel], for which, under “compound concentration: 2 uM”, the TEAD-luciferase reporter activity was inactive: 1.54.
Take `Nc1ccn(C[C@@H](CO)OCP(=O)(O)O)c(=O)n1` [cidofovir hydrate]: the TEAD-luciferase reporter activity by setting is: (compound concentration: 200 nM) inactive: -3.01; (compound concentration: 10 uM) inactive: 0.329.
As to `CCCCCCCCCCCC(=O)OCC(O)[C@H]1OC[C@H](O)[C@H]1O` (stereo partly specified), the TEAD-luciferase reporter activity was inactive: 1.1 (compound concentration: 200 nM), inactive: -1.31 (compound concentration: 2 uM) and inactive: 2.2 (compound concentration: 10 uM).
The corresponding values for `CNC1CCCN(c2c(F)cc3c(=O)c(C(=O)O)cn(C4CC4)c3c2OC)C1` (stereo unspecified) [balofloxacin] are inactive: 0.28, inactive: -0.0846 and inactive: -0.911.
In the case of `NS(=O)(=O)c1cc2c(cc1Cl)NC(Cc1ccc(F)cc1)NS2(=O)=O` (stereo unspecified), the TEAD-luciferase reporter activity is inactive: -0.421 (compound concentration: 200 nM), inactive: -1.32 (compound concentration: 2 uM) and inactive: -0.565 (compound concentration: 10 uM).

Source of the values: the supplement of paper PMC10735217.
